{
  "source": "patent US20250205385A1",
  "about": "“SILICONE MATERIAL, SILICONE TUBE, IMPLANT, PHARMACEUTICAL COMPOSITION, AND TEST METHOD FOR AMOUNT OF DRUG RELEASED” (SHENYANG XINGHUA PHARMACEUTICAL TECHNOLOGY CO., LTD, priority 2022, published 2025)",
  "experiment": "In vitro accelerated release experiment of LNG implants at 45° C. and 55° C. (Arrhenius)",
  "type": "physicochemical",
  "conditions": "for release rate relative to that at 37° C.: LNG implant, silicone tube of Example 18-2",
  "note": "At least one compound was matched to its structure with a doubt left.",
  "data": [
    {"smiles": "C#C[C@]1(O)CC[C@H]2[C@@H]3CCC4=CC(=O)CC[C@@H]4[C@H]3CC[C@@]21CC", "note": "[levonorgestrel, D(−)-17α-ethynyl-17β-hydroxy-18-methyl-estr-4-en-3-one]", "values": [
      {"measurement": "release time equal to the 24-hour release amount at 37° C.", "setting": "45° C.", "result": "~5.2", "unit": "h"},
      {"measurement": "release rate relative to that at 37° C.", "setting": "45° C.", "result": "approximately 4.5 times"},
      {"measurement": "release time equal to the 24-hour release amount at 37° C.", "setting": "55° C.", "result": "~0.85", "unit": "h"},
      {"measurement": "release rate relative to that at 37° C.", "setting": "55° C.", "result": "approximately 28 times"}
    ]}
  ]
}
